From patent publication US20140051601A1, “METABOLOMIC PROFILING OF CANCER” (METABOLAN INC., priority 2006, published 2014)

Assay: Urine metabolic profiling, GS major 3 versus GS major 4 prostate cancer
Design: species or system human
Conditions: urine metabolite level; more aggressive (GS major 4) vs less aggressive (GS major 3) prostate cancer

Molecule	% Change in Aggressive PCA
Cn1c(=O)c2c([nH]c(=O)n2C)n(C)c1=O [1,3-7-trimethyluric acid]	−66.55%
Cn1c(=O)[nH]c2[nH]c(=O)n(C)c2c1=O [1-7-dimethylurate]	−62.29%
Cn1cnc2c(ncn2[C@@H]2O[C@H](CO)[C@@H](O)[C@H]2O)c1=N [1-methyladenosine]	43.02%
Cn1c(=O)[nH]c2[nH]c(=O)[nH]c2c1=O [1-methylurate]	−49.8%
Cn1c(=O)[nH]c2nc[nH]c2c1=O [1-methylxanthine]	−67.91%
CC(C)C(O)(CC(=O)O)C(=O)O (stereo not shown) [2-isopropylmalate]	166.3%
O=C(O)Cc1ccc(O)c(O)c1 [3-4-dihydroxyphenylacetate]	123.2%
O=S(=O)(O)Oc1c[nH]c2ccccc12 [3-indoxyl-sulfate]	−23.75%
Cn1cncc1C[C@H](N)C(=O)O [3-methylhistidine]	102.4%
Cn1c(=O)[nH]c(=O)c2[nH]cnc21 [3-methylxanthine]	−72.5%
NC(=O)NCCC(=O)O [3-ureidopropionate]	27.57%
CC(=O)NCCCC(=O)O [4-acetamidobutanoate]	59.98%
N=C(N)NCCCC(=O)O [4-guanidinobutanoate]	174.7%
O=C(O)c1ccc(O)cc1 [4-hydroxybenzoate]	71.09%
O=C(O)C(O)c1ccc(O)cc1 (stereo not shown) [4-hydroxymandelate]	89.8%
NC(=O)NCCCC(=O)O [4-ureidobutyrate]	60.31%
O=C(O)Cc1c[nH]c2ccc(O)cc12 [5-hydroxyindoleacetate]	84.95%
O=C1CC[C@@H](C(=O)O)N1 [5-oxoproline]	−29.7%
C[n+]1cn([C@@H]2O[C@H](CO)[C@@H](O)[C@H]2O)c2nc(N)[nH]c(=O)c21 [7-methylguanosine]	84.95%
CC(=O)N[C@@H](CCCNC(=N)N)C(=O)O [N-acetylarginine]	85.96%
CC(=O)N[C@@H](CC(=O)O)C(=O)O [N-acetylaspartate (NAA)]	94.62%
CC(=O)N[C@@H](Cc1c[nH]cn1)C(=O)O [N-acetylhistidine]	59.11%

Molecule	% Change in Aggressive PCA
CC(=O)N[C@@H](Cc1ccccc1)C(=O)O [N-acetylphenylalanine]	66.64%
CC(=O)N[C@H](C(=O)O)[C@@H](C)O [N-acetylthreonine]	78.16%
CC(=O)N[C@H](C(=O)O)C(C)C [N-acetylvaline]	66.01%
Nc1ncnc2c1ncn2[C@@H]1O[C@H](CSCC[C@H](N)C(=O)O)[C@@H](O)[C@H]1O [S-adenosylhomocysteine (SAH)]	62.81%
C[C@H](O)[C@H](N)C(=O)O [allo-threonine]	307.6%
O=C[C@@H](O)[C@H](O)[C@H](O)CO [arabinose]	148.4557%
OC[C@@H](O)C(O)[C@H](O)CO [arabitol]	98.61%
O=C1O[C@H]([C@@H](O)CO)C(O)=C1O [ascorbate (Vitamin C)]	176%
C[N+](C)(C)CC(=O)O [betaineQUM]	111.1%
O=C(O)/C=C(/CC(=O)O)C(=O)O [cis-aconitate]	−25.83%
O=C(O)CC(O)(CC(=O)O)C(=O)O [citrate]	159.3%
CN(CC(=O)O)C(=N)N [creatine]	239.6%
C[C@]12CC[C@H](OS(=O)(=O)O)CC1=CC[C@@H]1[C@@H]2CC[C@]2(C)C(=O)CC[C@@H]12 [dehydroisoandrosterone sulfate (DHEA-S)]	153.8%
CN(C)CC(=O)O [dimethylglycine]	89.87%
OC[C@@H](O)[C@H](O)[C@H](O)[C@@H](O)CO [galactitol-dulcitol-]	352.7%
CC[C@H](C)[C@H](NC(=O)CC[C@H](N)C(=O)O)C(=O)O [gamma-glutamylisoleucine*]	83.47%
CC(C)C[C@H](NC(=O)CC[C@H](N)C(=O)O)C(=O)O [gamma-glutamylleucine]	100.9%
N[C@@H](CCC(=O)N[C@@H](Cc1ccc(O)cc1)C(=O)O)C(=O)O [gamma-glutamyltyrosine]	199.7%
N[C@@H](CCC(=O)N[C@@H](Cc1ccccc1)C(=O)O)C(=O)O [gammaglutamylphenylalanine]	116.5%
CC(C)[C@H](NC(=O)[C@@H](N)CCC(=O)O)C(=O)O [glutamylvaline] (H-Glu-Val-OH)	53.61%
O=P(O)(O)OCC(O)CO (stereo not shown) [glycerol 3-phosphate (G3P)]	96.66%
C[N+](C)(C)CCOP(=O)([O-])OC[C@H](O)CO [glycerophosphorylcholine (GPC)]	−31%

Molecule	% Change in Aggressive PCA
NCC(=O)O [glycine]	51.52%
O=C(O)CO [glycolate (hydroxyacetate)]	103.8%
NCC(=O)N1CCC[C@H]1C(=O)O [glycylproline] (H-Gly-Pro-OH)	81.32%
O=C1O[C@@H]([C@H](O)CO)[C@@H](O)[C@H]1O [gulono-1-4-lactone]	61.59%
COc1cc(CC(=O)O)ccc1O [homovanillate (HVA)]	87.32%
O=C(O)CNCC(=O)O [iminodiacetate-IDA-]	44.48%
O=C(O)Cc1c[nH]c2ccccc12 [indoleacetate*]	105.9%
O=C(O)C(O)Cc1c[nH]c2ccccc12 (stereo not shown) [indolelactate]	101.8%
CC(C)C(=O)O[C@H](CC(=O)[O-])C[N+](C)(C)C [isobutyrylcarnitine]	55.35%
CC[C@H](C)[C@H](N)C(=O)O [isoleucine]	54.7%
Nc1ccccc1C(=O)CC(N)C(=O)O (stereo not shown) [kynurenine]	132.4%
OC[C@H]1O[C@@H](O[C@H]2[C@H](O)[C@@H](O)[C@@H](O)O[C@@H]2CO)[C@H](O)[C@@H](O)[C@H]1O [lactose]	108.8%
OC[C@H]1OC(O)[C@@H](O)[C@@H](O)[C@@H]1O (stereo partly shown) [mannose]	108%
CSCC[C@H](N)C(=O)O [methionine]	93.23%
NCCO [monoethanolamine]	159.4%
Cn1c(=O)[nH]c2ncn(C)c2c1=O [paraxanthine]	−63.9%
O=C(O)CNC(=O)Cc1ccccc1 [phenylacetylglycine]	90.17%
N[C@@H](Cc1ccccc1)C(=O)O [phenylalanine]	57.32%
O=c1[nH]cc([C@@H]2O[C@H](CO)[C@@H](O)[C@H]2O)c(=O)[nH]1 [pseudouridine]	54.52%
Cc1ncc(CO)c(C=O)c1O [pyridoxal]	54.86%
CC(=O)C(=O)O [pyruvate]	62.15%
O=C(O)c1cccnc1C(=O)O [quinolinate]	61.92%

Molecule	% Change in Aggressive PCA
O=C(O)[C@H](O)[C@H](O)[C@H](O)CO [ribonate]	100.4%
CNCC(=O)O [sarcosine, N-methylglycine]	89.66%
N[C@@H](CO)C(=O)O [serine]	80.6%
NCCCNCCCCNCCCN [spermine]	−78.27%
O=C(O)[C@H](O)[C@@H](O)CO [threonate]	94.31%
C[C@@H](O)[C@H](N)C(=O)O [threonine]	77.88%
Cc1c[nH]c(=O)[nH]c1=O [thymine]	71.13%
N[C@@H](Cc1c[nH]c2ccccc12)C(=O)O [tryptophan]	80.31%
N[C@@H](Cc1ccc(O)cc1)C(=O)O [tyrosine]	99.34%
Oc1nc(O)c2nc(O)[nH]c2n1 [urate-]	−49.86%
O=C(O)/C=C/c1cnc[nH]1 [urocanate]	55.54%
CC(C)[C@H](N)C(=O)O [valine]	132.4%
O=C[C@H](O)[C@@H](O)[C@H](O)CO [xylose]	79.58%
azelate (nonanedioate)	207.3%
fumarate	−27.16%
glucarate (saccharate)	78.74%
gluconate	135.4%
lactate	−29.29%
mesaconate (methylfumarate)	−48.02%

Structures can show the parent of a compound that is named as a salt. Where a SMILES comes first, the peptide text is derived from it.
